# From PubChem BioAssay AID2685 (National Center for Advancing Translational Sciences (NCATS), 2010)
# Some of the results follow. Further columns of the screen follow, without active or inactive calls. The list favours compounds with an active or inconclusive main result. The note in brackets gives the kind of curve behind each potency; many fits are weak.
# Test: qHTS Assay for Lipid Storage Modulators in Drosophila S3 Cells;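 as to cell number change: cells counted by Cell Tracker Red CMTPX staining in the red channel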
# Details: BODIPY lipid droplet fluorescence, 18-24 h; for cell number change: measured here: cell count max response, cells fed with added oleic acid
# Procedure, shortened: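 Drosophila S3 cells loaded with oleic acid (400 uM, as added) and compounds at several concentrations; lipid droplets imaged by 488-nm laser-scanning cytometry, 500–530 nm intensity and object ratio to cell channel. Percent activity normalized to 20 uM Triacsin C.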
# [1] = measured here: lipid fluorescence (Fed channel) AC50, cells fed with added oleic acid
# [2] = measured here: cell number channel AC50, cells fed with added oleic acid
SMILES,cell number change [%],AC50 [1],AC50 [2]
O=C(OCCC1Oc2cccnc2NC1=O)c1ccc(Cl)cc1 (stereo not drawn),10.4,,
O=c1oc2cc(S(=O)(=O)NCCCO)ccc2c2ccc(S(=O)(=O)NCCCO)cc12,-4.33,"29.1 µM [rising, single point]",
Cc1cc2c(c(/C=C/C(=O)c3ccccc3)c1)OC1(C=C2)Oc2ccccc2C(=O)N1C (stereo not drawn),32,,"2.91 µM [rising, partial curve]"
O=C(Nc1cccc(S(=O)(=O)N2CCCCCC2)c1)c1ccc2c(c1)OCO2,33.8,"0.0259 µM [rising, full curve, poor fit]","13 µM [rising, partial curve, poor fit]"
Cc1cc(C)nc(SCC(=O)NNS(=O)(=O)c2ccc(C#N)cc2)n1,4,,
COC(=O)Cn1c(CN2CCOCC2)nc2c1c(=O)n(C)c(=O)n2C,13,"0.92 µM [rising, full curve, poor fit]","0.058 µM [rising, full curve, poor fit]"
COc1cc(OC)cc(C(=O)N(Cc2cc3cc(C)ccc3[nH]c2=O)C(C)C)c1,-4.11,"0.231 µM [rising, full curve, poor fit]",
N#Cc1ccc(NCC(=O)N2CCN(S(=O)(=O)c3ccccc3)CC2)cc1,1.88,"7.31 µM [falling, partial curve, poor fit]",
CCOc1ccccc1NC(=S)N1CCN(c2cccc(C)c2C)CC1,-36.7,,"14.6 µM [falling, single point]"
Cc1cccc(NC(=O)N2CCN(Cc3ccc(Cl)cc3)CC2)c1,,"29.1 µM [falling, single point]",
CC(NS(=O)(=O)c1ccc(OCC(=O)N2CCCC2)cc1)c1ccccc1 (stereo not drawn),8.73,,
Cc1nn2c(=O)c(NC(=O)c3ccc(F)cc3)cnc2s1,-17.2,"29.1 µM [falling, single point]",
COc1ccc(C2/C(=C(\O)c3ccc4c(c3)CC(C)O4)C(=O)C(=O)N2Cc2cccnc2)c(OC)c1 (stereo not drawn),-14.7,"4.61 µM [rising, single point]",
C/C(=N\NC(=O)C(=O)Nc1cccc(Cl)c1C)c1ccncc1,,"2.31 µM [falling, partial curve, poor fit]","0.00461 µM [falling, full curve, poor fit]"
Cc1ccc(CCNC(=O)c2ccc(CS(=O)(=O)c3ccccc3C)o2)cc1,12.5,"0.184 µM [falling, full curve, poor fit]",
COc1ccccc1NC(=O)C(=O)NCC(c1ccco1)N1CCc2ccccc2C1 (stereo not drawn),22.3,"13 µM [rising, partial curve]",
COc1cc2c(cc1OC)CN(C(=O)CCNC(=O)c1ccc(Br)cc1)CC2,,"23.1 µM [rising, single point]",
Cc1ccc(NC(=O)CCNS(=O)(=O)c2ccc(OC(F)(F)F)cc2)c(O)c1,-5.78,,
C=CCc1cc(OC)ccc1OCC(O)CN1CCN(c2ccc(OC)cc2)CC1 (stereo not drawn),51.6,,
Cc1ccc(-n2c(SCc3cc(=O)n4ccsc4n3)nnc2-c2cccnc2)c(C)c1,0.769,"25.9 µM [rising, single point]",
C/C=C/c1ccc(OCCCn2cncn2)c(OC)c1,-10.7,,

SMILES,cell number change [%],AC50 [1],AC50 [2]
Cc1nn(-c2cccc(Cl)c2)nc1C(=O)O,65.8,"0.116 µM [falling, single point]","23.1 µM [rising, single point]"
CC(C)C[C@H](NC(=O)OC(C)(C)C)C(=O)N[C@@H](CO)[C@H](O)[C@@H]1C[C@@H]1C(=O)N(C)C,19.5,"29.1 µM [rising, single point]",
Cc1oc2cc(Br)c(O)c(Br)c2c1-c1ccccc1,-53.2,"7.31 µM [falling, partial curve]","29.1 µM [falling, single point]"
Cc1nc(-c2ccc(NC(=O)c3ccc(Br)o3)cc2)cs1,-32.1,,"2.31 µM [falling, partial curve, poor fit]"
CCOP(=O)(OCC)C(Nc1cccc([N+](=O)[O-])c1)c1ccc(N(C)C)cc1 (stereo not drawn),-14.7,"0.00651 µM [falling, full curve, poor fit]",
O=C(Nc1ccc(O)c(C(=O)O)c1)Oc1ccccc1,10.6,,"3.66 µM [falling, single point]"
COCCNS(=O)(=O)c1cc(Br)ccc1OC,-137,"29.1 µM [falling, single point]","20.6 µM [falling, partial curve]"
CCOc1ccccc1NC(=O)Cc1cccs1,-19.3,"29.1 µM [rising, single point]",
O=C(Cn1c(-c2cncs2)nc2ccccc21)NC1CCCC1,,"0.58 µM [rising, single point]",
CCOC(=O)C(NC(=O)c1ccccc1)(N1CCOCC1)C(F)(F)F (stereo not drawn),-20.9,"14.6 µM [falling, partial curve]",
O=C(NCc1ccc2c(c1)OCO2)C12CC3CC(CC(C3)C1)C2,29,"13 µM [rising, partial curve]",
Cc1onc(-c2ccccc2Cl)c1C(=O)NCc1nc(-c2ccc(C(F)(F)F)cc2)no1,-1.63,"29.1 µM [falling, single point]",
CN(c1ccc([N+](=O)[O-])cc1C(N)=O)C1CCCCC1,3.82,,"0.58 µM [rising, single point]"
COc1cccc(/C=C2\SC(=O)N(CCC(=O)N3CCCCC3CCO)C2=O)c1 (stereo not drawn),-0.295,"29.1 µM [falling, single point]",
CSCCC(NC(=O)c1ccccc1Br)C(=O)NNC(=O)c1ccncc1 (stereo not drawn),-2.59,"0.00651 µM [falling, full curve, poor fit]",
CCOC(=O)C1CSc2[nH]c(=O)sc2C1c1ccccc1 (stereo not drawn),-2.77,"29.1 µM [rising, single point]",
CC(C)OCCCNC(=O)CCc1nc(-c2ccccc2)no1,2.79,,
Cc1ccc(/C=N/NC(=O)c2ccc(-n3cccc3)cc2)o1,-15.6,"29.1 µM [rising, single point]",
CCOc1ccc(CCNC(=O)CN2C(=O)NC3(CCc4ccccc43)C2=O)cc1OCC (stereo not drawn),-48,"11.6 µM [falling, partial curve, poor fit]","18.4 µM [falling, partial curve]"
COc1ccc(N(C)S(=O)(=O)c2c(C)[nH]c(=O)[nH]c2=O)cc1,-6.84,,
O=C(CN1CC[n+]2c(-c3ccccc3)csc21)c1ccc(Br)cc1,17.8,,"0.00461 µM [rising, full curve, poor fit]"

# By substructure, those above with a COOH group.
SMILES,cell number change [%],AC50 [1],AC50 [2]
Cc1nn(-c2cccc(Cl)c2)nc1C(=O)O,65.8,"0.116 µM [falling, single point]","23.1 µM [rising, single point]"
O=C(Nc1ccc(O)c(C(=O)O)c1)Oc1ccccc1,10.6,,"3.66 µM [falling, single point]"

# The results go on.

SMILES,cell number change [%],AC50 [1],AC50 [2]
Cc1ccc(NC(=S)NNC(=O)CSc2nnc(-c3ccc(Cl)cc3)n2C2CCCCC2)cc1,-47.2,,"5.8 µM [falling, full curve]"
COc1ccccc1NS(=O)(=O)c1cccc(C(=O)NN)c1,52.6,"29.1 µM [rising, single point]","13 µM [rising, partial curve]"
Cc1cccc(N/N=C2/COC(C)(C)CC2=O)c1,34.2,"9.2 µM [rising, partial curve]","10.3 µM [rising, partial curve, poor fit]"
COc1ccc(CNC(=O)Cn2nc(C)c3c(C)n(-c4ccc(C)cc4)nc3c2=O)cc1OC,,,"0.058 µM [rising, full curve]"
O=C1NC2(CCCCC2)CO1,23.3,"29.1 µM [rising, single point]",
CCOCCCNC(=O)CCCC1=NS(=O)(=O)c2ccccc2N1,,"29.1 µM [falling, single point]",
COc1cccc(CNC(=O)CSc2nc(=O)n(Cc3ccncc3)c3c2CCC3)c1,22.8,"5.17 µM [rising, full curve, poor fit]",
C=CCc1ccccc1OCC(=O)N/N=C/c1ccc(OC(C)=O)cc1OC(C)=O,0.109,"3.66 µM [rising, single point]",
Cc1nc2ccccc2c(=O)n1CCCN1CCOCC1,-13.7,"0.164 µM [falling, full curve]",
O=S(=O)(Nc1ccc(N2CCOCC2)cc1)c1c(F)cc(F)cc1Br,3.95,,
O=C(Nc1ccc(F)cc1)c1ccc(CN2CCc3ccccc3C2)cc1,,"11.6 µM [falling, partial curve]",
O=C(NCCN1CCOCC1)c1ccc(Cl)c(S(=O)(=O)N2CCCCCC2)c1,-13.8,,
CCC(C)NC(=O)Cn1nc(C(F)(F)F)c2c1CCC2 (stereo not drawn),1.07,"7.31 µM [falling, single point]",
C=CCn1c(SCC(=O)Nc2ccccc2OC)nnc1-c1ccco1,,,"0.731 µM [rising, single point]"
Cc1ccc(CNC(=O)c2cc3c(-c4ccc(Cl)cc4)nn(C)c3s2)o1,50.4,"6.51 µM [rising, partial curve, poor fit]","18.4 µM [rising, single point]"
C=CCN=C(NC#N)SCCc1ccccc1,-0.323,"1.3 µM [rising, full curve, poor fit]",
O=C(C1CCCN(S(=O)(=O)c2cnc[nH]2)C1)N1CCN(Cc2ccccc2)CC1 (stereo not drawn),9.22,,
Cc1nn(CCCC(=O)NCc2ccc(F)cc2)c(C)c1[N+](=O)[O-],1.23,"23.1 µM [falling, single point]",
O=C(Cc1ccc(Br)cc1)Nc1cccc(Cl)c1,8.7,"2.91 µM [falling, single point]",
